# According to patent US8652467B2, “Dek protein compositions and methods of using the same” (The Regents of the University of Michigan, priority 2005, dated 2014):
# For at least one compound, name, drawing or mass did not settle the structure.
# Tested on: monocyte-derived macrophages (MDM)
# Assay: DEK secretion by serum-differentiated MDM, Western blot of supernatants
# Format: cell-based, human
# Conditions: for DEK secretion: 0.5 μM or 1 μM dexamethasone, 12 h, day 11 MDM
# Method: MDM were prepared as described (See, e.g., Lane et al., J Immunol 163, 3653-61. (1999)). Briefly, heparinized venous blood was collected from healthy volunteers, and peripheral blood mononuclear cells (PBMC) were separated by Ficoll-Hypaque (Amersham Pharmacia Biotech AB, Uppsala, Sweden) density gradient centrifugation. MDM were purified by adherence to plastic for 2 h at 37° C. at a concentration of 5×10^5/ml. Adherent cells were consistently >90% monocytes (See, e.g., Lane et al., J Immunol 163, 3653-61. (1999)). […]
# MDMs were maintained for 12 h in serum-free conditioned media with added dexamethasone, (0.5 μM or 1 μM) (Sigma St. Louis, Mo.), cyclosporin A (CsA, 1 μg/ml) (Sigma St. Louis, Mo.), carbonyl cyanide chlorophenyl hydrazone (CCCP) (10 μM) (Sigma St. Louis, Mo.), IL-8 (10 ng/ml) (R&D Systems, Minneapolis, Minn.) or TBB (See, e.g., Sarno et al., Pharmacol Ther 93, 159-68 (2002)) for 3 hours. Following 3 washes with PBS, serum-free media was added for 3 to 12 h before harvest. The viability of the cells incubated in serum-free medium with or without added drugs was >95% at 48 h as measured by MTT-based colorimetric assay (Boehringer Mannheim, Indianapolis, Ind.) and by LDH release as previously described (See, e.g., Punturieri et al., J Exp Med 192, 789-99. (2000)). Supernatants were collected and centrifuged for 20 min at 200×g to remove cell debris, then concentrated by a centrifugal filter device (Millipore) in the presence of a protease inhibitor cocktail (Boehringer Mannheim, Indianapolis, Ind.). Equal amounts of protein (20 μg) were loaded under reducing conditions and proteins were separated by 10% SDS-PAGE. The proteins were subsequently transferred to nitrocellulose and probed with mouse monoclonal anti-DEK or rabbit or goat polyclonal anti-DEK antibodies. The bound primary antibody was then detected with horseradish peroxidase-conjugated goat anti-mouse or anti-rabbit secondary antibody using the Super Signal West Pico system (Pierce Chemical Co, Rockford, Ill.).
compound,measurement,setting,value
"C[C@@H]1C[C@H]2[C@@H]3CCC4=CC(=O)C=C[C@]4(C)[C@@]3(F)[C@@H](O)C[C@]2(C)[C@@]1(O)C(=O)CO [Dexamethasone, dexamethasone]",DEK secretion,,inhibits DEK secretion in a dose-dependent fashion
same,DEK secretion,listed as dexamethasone,can be blocked
same,intracellular DEK,dexamethasone-treated MDM,causes DEK to accumulate inside the cell
